{"source": "paper doi:10.1101/2020.09.10.288878", "binders": {"B1": {"name": "Dam1 fused to the activation domain of Gal4 (protein, UniProt P53267 1-343)", "chain": "MSEDKAKLGTTRSATEYRLSIGSAPTSRRSSMGESSSLMKFADQEGLTSSVGEYNENTIQQLLLPKIRELSDSIITLDSNFTRLNFIHESLADLNESLGSLLYGIMSNSWCVEFSQAPHDIQDDLIAIKQLKSLEDEKNNLVMELSNMERGIKRKKDEQGENDLAKASQNKQFNQPLFPSSQVRKYRSYDNRDKRKPSKIGNNLQVENEEDYEDDTSSEASFVLNPTNIGMSKSSQGHVTKTTRLNNNTNSKLRRKSILHTIRNSIASGADLPIENDNVVNLGDLHPNNRISLGSGAARVVNGPVTKNRNSMFSGRAERKPTESRHSVAKKTEKKINTRPPFR"}}, "target": "Sli15 MTB-12Q fused to the DNA binding domain of Gal4 (S. cerevisiae)", "test": "two-hybrid", "note": "Results are given in words; binding and its absence hold for the method and conditions named. Tags and fused reporters may be left off the sequences shown."}
{"binder": "B1", "values": [{"measurement": "binding", "value": "no binding"}]}
